In assay [1] the target is endogenous mouse p65 NF-κB (mouse spinal cord or BV-2 cells) (mouse) (UniProt Q04207). Kind of assay: co-immunoprecipitation with polyclonal anti-TDP-43 from transgenic mouse spinal cord, p65 immunoblot. In general terms: In western blotting, separated proteins are transferred to a membrane and probed.
Assay [2] has the same target. Kind of assay: co-immunoprecipitation with polyclonal anti-TDP-43 from spinal cord of TDP-43^wt transgenic mice (FIG. 1A).
The target in assay [3] is p65 subunit of NF-κB expressed from pCMV-p65 (Homo sapiens (Human)) (UniProt Q04206). Kind of assay: co-immunoprecipitation from transfected BV-2 cells.
For assay [4] the target is unchanged. In words: anti-HA co-immunoprecipitation from co-transfected BV-2 cells, p65 immunoblot.
Assay [5] has the same target. Kind of assay: anti-HA magnetic bead co-immunoprecipitation from co-transfected BV-2 cells (FIG. 10A).
Assay [6] shares this target. Kind of assay: p65 EMSA supershift with anti-HA antibody, nuclear extracts of transfected, LPS-stimulated BV-2 cells (FIG. 3D). (In general: In EMSA bound probe runs differently from free probe, usually more slowly.)
The target is the same in assay [7]. In words: co-immunoprecipitation with TDP-43 antibody from transfected BV-2 lysates, treated with proteinase K, RNase or DNase 1 (FIG. 4D).
Assay [8] has the same target. Kind of assay: anti-HA co-immunoprecipitation from transfected BV-2 cells, p65 immunoblot.
The target is the same in assay [9]. In words: anti-HA co-immunoprecipitation from transfected BV-2 cells, p65 immunoblot (FIG. 4B).

Chains of the proteins cited; added tags and fusions are not shown. Lines headed by an entry give the natural chain unless they say otherwise; changes in a name come on top.
UniProt Q04207: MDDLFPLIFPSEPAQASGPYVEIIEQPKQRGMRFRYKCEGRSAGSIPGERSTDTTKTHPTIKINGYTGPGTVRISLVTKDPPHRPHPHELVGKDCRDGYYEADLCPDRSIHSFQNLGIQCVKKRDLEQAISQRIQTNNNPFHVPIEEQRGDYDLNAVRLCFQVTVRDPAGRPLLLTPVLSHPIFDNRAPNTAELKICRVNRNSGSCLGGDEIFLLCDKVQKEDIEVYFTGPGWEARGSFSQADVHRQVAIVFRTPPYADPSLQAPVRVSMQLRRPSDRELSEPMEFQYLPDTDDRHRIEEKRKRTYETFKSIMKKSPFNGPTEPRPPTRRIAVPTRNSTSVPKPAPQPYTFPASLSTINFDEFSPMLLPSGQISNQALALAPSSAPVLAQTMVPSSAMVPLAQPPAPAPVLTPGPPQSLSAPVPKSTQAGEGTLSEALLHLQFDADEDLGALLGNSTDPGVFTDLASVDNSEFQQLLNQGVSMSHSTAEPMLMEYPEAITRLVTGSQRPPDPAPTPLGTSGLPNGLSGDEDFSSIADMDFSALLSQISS
UniProt Q04206: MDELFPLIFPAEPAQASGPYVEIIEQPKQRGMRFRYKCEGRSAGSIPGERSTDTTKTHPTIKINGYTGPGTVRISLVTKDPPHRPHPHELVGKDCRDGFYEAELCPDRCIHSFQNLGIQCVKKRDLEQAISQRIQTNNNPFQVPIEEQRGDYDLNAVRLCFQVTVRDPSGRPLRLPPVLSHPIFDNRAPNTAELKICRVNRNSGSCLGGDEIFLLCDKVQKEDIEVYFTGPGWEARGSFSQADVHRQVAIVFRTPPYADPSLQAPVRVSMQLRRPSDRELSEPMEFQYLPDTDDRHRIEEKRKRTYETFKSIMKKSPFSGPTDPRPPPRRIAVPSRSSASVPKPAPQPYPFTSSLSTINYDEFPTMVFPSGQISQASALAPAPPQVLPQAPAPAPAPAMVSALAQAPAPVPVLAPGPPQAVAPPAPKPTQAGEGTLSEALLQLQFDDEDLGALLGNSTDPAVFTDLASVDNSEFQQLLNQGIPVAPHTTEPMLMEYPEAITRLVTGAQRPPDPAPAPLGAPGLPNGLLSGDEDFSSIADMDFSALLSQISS

These are yes or no findings as the source states them, for the method shown. For some of these results: In cells and extracts the contact can be indirect. Some results given as binding are weak or reduced against the parent protein; the word gives no strength.

Turning to “human TDP-43 (untagged; TDP-43^wt transgene product in mouse spinal cord, or endogenous TDP-43 in human spinal cord) (from UniProt Q13148 1-414)”, the binding result in [1] and in assay [2] was “binds” in each case.
As for “TDP-43^ΔNR1-81 (98-176AAs), N-terminal and RRM-1 deletion mutant with the NLS signal attached (from UniProt Q13148 1-414)”, the binding entry in assay [3] was “binds”.
For the substance “TDP-43^wt, HA-tagged, expressed from pCMV-TDP43^wt in BV-2 cells (from UniProt Q13148 1-414)”, the binding entry in assay [4], in [5], in assay [6] and in assay [7] was “binds” each time.
With “TDP-43^ΔRRM-2 (191-262AAs), HA-tagged deletion mutant (from UniProt Q13148 1-414)”, the binding result in assay [8] and in assay [9] was “binds” in each case.
Consider “TDP-43^ΔNR1-50 (51-81 and 98-176 AAs), N-terminal and RRM-1 deletion mutant with the NLS signal attached (from UniProt Q13148 1-414)”, for which the binding result in assay [3] is “binds”.

Values taken from US20160091504A1.
